Data as given in PubChem BioAssay AID504784 (Drosophila RNAi Screening Center, 2011)
In all, the deposit lists about 17,000 reagents; below is a random part of those with a known target gene and a result. 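Each column is one replicate's B-score; the combined score over replicates was not deposited, so single values may mislead.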 Further read-outs or replicates are left out here. Reagent sequences are not shown.

Screen: 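Genome-wide knock-down for genes giving too much or too little stored lipid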 (primary screen)
Cells: Drosophila Kc167 embryonic cells
Knock-down reagent: long dsRNA against Drosophila genes, about 250 ng dsRNA per well
Duration: 4 days
Conditions: cells fed 400 µM oleic acid bound to BSA
Measured: 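Cells imaged and segmented; ratio of lipid droplet area to nuclear area, log-transformed, then normalised as a B-score over the screen; higher means more stored lipid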
Scale: droplet/nuclear area B-score: higher = more stored lipid (overstorage)

CR30068 (retired record) [DRSC05477] | droplet/nuclear area B-score, replicate 1 = 0.21
CG11656 [DRSC14338] | droplet/nuclear area B-score, replicate 1 = 0.927
CG11756 [DRSC19424] | droplet/nuclear area B-score, replicate 1 = -0.148
anchor [DRSC10861] | droplet/nuclear area B-score, replicate 1 = -1.51
asp [DRSC16903] | droplet/nuclear area B-score, replicate 1 = -1.19
Nrx-1 [DRSC16184] | droplet/nuclear area B-score, replicate 1 = 0.897
Claspin [DRSC08308] | droplet/nuclear area B-score, replicate 1 = -0.425
r2d2 [DRSC03014] | droplet/nuclear area B-score, replicate 1 = 1.24
Srp54 [DRSC03442] | droplet/nuclear area B-score, replicate 1 = -3.02
CG5334 [DRSC19941] | droplet/nuclear area B-score, replicate 1 = -0.0362
so [DRSC07693] | droplet/nuclear area B-score, replicate 1 = -0.0436
so [DRSC23096] | droplet/nuclear area B-score, replicate 1 = 0.374
Kdm5 [DRSC03133] | droplet/nuclear area B-score, replicate 1 = 0.643
CG11444 [DRSC17784] | droplet/nuclear area B-score, replicate 1 = 0.34
CG14259 [DRSC14754] | droplet/nuclear area B-score, replicate 1 = -2.49
Prosbeta4 [DRSC02603] | droplet/nuclear area B-score, replicate 1 = 7.25
CG13712 [DRSC08321] | droplet/nuclear area B-score, replicate 1 = 0.955
DCTN1-p150 [DRSC11175] | droplet/nuclear area B-score, replicate 1 = -1.16
CG7272 [DRSC10795] | droplet/nuclear area B-score, replicate 1 = 1.71
CG15035 [DRSC17967] | droplet/nuclear area B-score, replicate 1 = -0.338
Rpn9 [DRSC16840] | droplet/nuclear area B-score, replicate 1 = 0.619
CG1847 [DRSC19810] | droplet/nuclear area B-score, replicate 1 = -0.179
CG7536 [DRSC20050] | droplet/nuclear area B-score, replicate 1 = -1.04
CG5639 [DRSC15851] | droplet/nuclear area B-score, replicate 1 = 1.01
CG31109 [DRSC14648] | droplet/nuclear area B-score, replicate 1 = -0.746
CG5937 [DRSC18392] | droplet/nuclear area B-score, replicate 1 = 1.51
Socs36E [DRSC02455] | droplet/nuclear area B-score, replicate 1 = -0.717
CG30048 [DRSC22205] | droplet/nuclear area B-score, replicate 1 = -0.125
mRpL21 [DRSC11100] | droplet/nuclear area B-score, replicate 1 = 1.64
Mal-A5 [DRSC07232] | droplet/nuclear area B-score, replicate 1 = 0.0712
CG3222 [DRSC10355] | droplet/nuclear area B-score, replicate 1 = 1.01
koi [DRSC04980] | droplet/nuclear area B-score, replicate 1 = 1.44
nebu [DRSC09807] | droplet/nuclear area B-score, replicate 1 = -1.03
nebu [DRSC09808] | droplet/nuclear area B-score, replicate 1 = -0.71
Adgf-A2 [DRSC09507] | droplet/nuclear area B-score, replicate 1 = 3.13
Liprin-gamma [DRSC04093] | droplet/nuclear area B-score, replicate 1 = 1.15
CG13295 [DRSC09969] | droplet/nuclear area B-score, replicate 1 = -1.87
Cpr47Ed [DRSC07331] | droplet/nuclear area B-score, replicate 1 = -2.29
pcx [DRSC18186] | droplet/nuclear area B-score, replicate 1 = -2.44
pcx [DRSC18187] | droplet/nuclear area B-score, replicate 1 = -2.78
pcx [DRSC18188] | droplet/nuclear area B-score, replicate 1 = 0.189
pcx [DRSC18189] | droplet/nuclear area B-score, replicate 1 = -0.672
pcx [DRSC18190] | droplet/nuclear area B-score, replicate 1 = 1.11
pcx [DRSC18816] | droplet/nuclear area B-score, replicate 1 = -0.562
RpS19b [DRSC15773] | droplet/nuclear area B-score, replicate 1 = 5.41
CG32037 [DRSC10363] | droplet/nuclear area B-score, replicate 1 = 0.87
CG12321 [DRSC14499] | droplet/nuclear area B-score, replicate 1 = -0.157
CG11892 [DRSC14428] | droplet/nuclear area B-score, replicate 1 = -3.35
Ssl [DRSC04657] | droplet/nuclear area B-score, replicate 1 = -3.4
Pfdn6 [DRSC10915] | droplet/nuclear area B-score, replicate 1 = 2.07
CG5697 [DRSC15858] | droplet/nuclear area B-score, replicate 1 = 1.35
